The assay can be described thus: qHTS Assay for Lipid Storage Modulators in Drosophila S3 Cells.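 As to cell number change: cells counted by Cell Tracker Red CMTPX staining in the red channel.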 The conditions noted are these: BODIPY lipid droplet fluorescence, 18-24 h; for cell number change: measured here: cell count max response, cells fed with added oleic acid. An outline of the steps: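 Drosophila S3 cells loaded with oleic acid (400 uM, as added) and compounds at several concentrations; lipid droplets imaged by 488-nm laser-scanning cytometry, 500–530 nm intensity and object ratio to cell channel. Percent activity normalized to 20 uM Triacsin C.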

[1] abbreviates: measured here: cell number channel AC50, cells fed with added oleic acid.
[2] abbreviates: measured here: lipid fluorescence (Fed channel) AC50, cells fed with added oleic acid.

The results in this text go back to PubChem BioAssay AID2685 (National Center for Advancing Translational Sciences (NCATS), 2010).

Some of the results follow. The main result of the screen is listed elsewhere. These columns were measured beside it and carry no call. Most of these compounds were active or inconclusive in the main read-out, so they are no random draw. Potencies come from curve fits of mixed quality, noted in brackets.

Take `O=C(CSc1nnc2ccccn12)NNC(=O)c1ccccc1`: the cell number change was -107%. The concentration at half-maximal activity (AC50) under setting [1] was 20.6 µM [falling, partial curve]. For the same molecule, the AC50 under setting [2] was 1.84 µM [falling, full curve].
As to `Cc1ccc(S(=O)(=O)N2CCN(C(=O)C(C)Cn3nc(C)c(C)c3C)CC2)cc1` (centres undefined), the cell number change is -15.1%. For the same molecule, the AC50 under setting [2] was 29.1 µM [rising, single point].
As to `O=S(Cc1ccc(Br)cc1)Cc1nnc(SCc2ccc(Br)cc2)n1-c1ccccc1` (centres undefined), the cell number change worked out at 9.85%. The AC50 under setting [2] was 6.51 µM [rising, partial curve, poor fit].
Take `S=c1[nH]nc(C2CCCCC2)n1/N=C/c1c(Cl)cccc1Cl`: the cell number change is -52.5%. In addition, the AC50 under setting [1] was 20.6 µM [falling, single point]. In addition, the AC50 under setting [2] is 18.4 µM [falling, single point].
For `CC1=CC(=O)C=C(C)C1=NOC(=O)c1cccc([N+](=O)[O-])c1`, the cell number change was 2.35%. Moreover, the half-maximal activity concentration (AC50) under setting [2] was 0.00461 µM [rising, full curve, poor fit].
Turning to `O=C(NCCc1c[nH]c2ccc(Cl)cc12)c1cccnc1`, the AC50 is, setting by setting: under setting [1], 1.46 µM [rising, partial curve]; under setting [2], 2.31 µM [rising, partial curve, poor fit].
For `CCOCCCNc1ccc(-c2ccccc2)nn1`, the cell number change is 20.3%. Under setting [2], the half-maximal activity concentration (AC50) was 2.06 µM [rising, partial curve].
As to `COc1cc(OC)c(S(=O)(=O)N2CCN(C(=O)c3ccccc3F)CC2)cc1NC(C)=O`, the cell number change worked out at 21.6%. Also, the concentration at half-maximal activity (AC50) under setting [2] was 7.31 µM [rising, partial curve].
In the case of `COc1ccc(CCNC(=O)COC(=O)/C=C/c2ccc(OCC#N)c(OC)c2)cc1OC`, the cell number change is -79.2%. The AC50 under setting [1] was 10.3 µM [falling, partial curve]. In addition, under setting [2], the concentration at half-maximal activity (AC50) is 2.31 µM [falling, full curve].
Consider `COC(=O)CCC(=O)NC1CC(C)(C)Cc2c1cnn2-c1ccc(F)cc1` (centres undefined), for which the cell number change was -31.8%. Moreover, the half-maximal activity concentration (AC50) under setting [1] was 5.8 µM [falling, partial curve].
Consider `CC(C)(C)c1cc(Cl)ccc1OCCOCCN1CCCC1`, for which the cell number change is -22.6%.
Regarding `COc1ccc(C2=NS(=O)(=O)N(C)C(C(=O)Nc3ccc(OC)c(OC)c3)=C2)cc1`, the cell number change was -1.44%. Further, the AC50 under setting [2] is 0.082 µM [rising, full curve, poor fit].
Consider `CCOC(=O)c1sc2nc(SC)nc(-c3ccccc3)c2c1N`, for which the cell number change is -11%. Moreover, the half-maximal activity concentration (AC50) under setting [2] is 13 µM [rising, partial curve].
As to `COC(=O)CN1C(=O)[C@H]2[C@@H](c3ccc(C)o3)N3C(=O)CN(CCO)C(=O)[C@@]3(Cc3ccccc3)[C@H]2C1=O`, the cell number change is -12.6%.
As to `Cc1nc2ccccc2nc1OCc1cccc([N+](=O)[O-])c1`, the cell number change was 7.38%. Further, the concentration at half-maximal activity (AC50) under setting [1] was 0.103 µM [falling, full curve, poor fit]. Moreover, the concentration at half-maximal activity (AC50) under setting [2] is 0.103 µM [falling, full curve, poor fit].
As to `CCOC(=O)c1c(NC(=O)CSc2ncccn2)sc2c1CC(C)(C)NC2(C)C`, the cell number change turned out to be 28.1%. Besides, under setting [2], the AC50 was 2.91 µM [rising, full curve].
Turning to `CC(C)Oc1ccc(C(=O)NCCCNC(=O)c2cccnc2)cc1`, the AC50 under setting [2] was 14.6 µM [falling, partial curve].
Take `CCOC(=O)c1ccc(NC(=O)CSc2nnc(COc3ccccc3OC)n2C)cc1`: the AC50 under setting [1] was 0.13 µM [falling, full curve, poor fit].
As for `O=C1NC(=O)c2c(NC(=O)C3CCCO3)cccc21` (centres undefined), the cell number change is -22.9%. Moreover, under setting [1], the concentration at half-maximal activity (AC50) is 0.00461 µM [falling, full curve, poor fit]. In addition, the AC50 under setting [2] is 0.651 µM [falling, full curve, poor fit].
For `Cc1cc(C)n(-c2nncc(-c3ccccc3)n2)n1`, the cell number change was -26.6%. In addition, under setting [1], the AC50 is 1.03 µM [falling, single point].
Consider `Cc1ccc(CC(=O)O/N=C(\N)c2ccncc2)cc1`, for which the cell number change was -11.8%. The AC50 under setting [2] was 0.731 µM [rising, partial curve].
Turning to `CC1CCCCN1c1nnc(NC(=O)Cn2c(=O)oc3ccccc32)s1` (centres undefined), the cell number change stood at 9.94%. Moreover, under setting [2], the half-maximal activity concentration (AC50) was 6.51 µM [rising, single point].
In the case of `CC(C)Oc1nc(-c2ccccc2O)nc2ccccc12`, the cell number change is 1.76%. In addition, the AC50 under setting [2] was 1.64 µM [rising, partial curve].
In the case of `Cc1ccc(S(=O)(=O)N(C)C)cc1NC(=O)CN1C(=O)NC2(CCCCCCC2)C1=O`, the cell number change came to 23.7%. The half-maximal activity concentration (AC50) under setting [2] is 8.2 µM [rising, partial curve].
Consider `COC(=O)C(Cc1ccccc1)NC(=O)c1cccc(S(=O)(=O)N(C)C)c1` (centres undefined), for which the AC50 under setting [1] is 1.84 µM [rising, partial curve, poor fit] and the AC50 under setting [2] was 1.03 µM [rising, partial curve, poor fit].
For the molecule `CSc1ccccc1OCc1cc(C(=O)NCCN2CCCC(O)C2)no1` (centres undefined), the cell number change was found to be 16.8%. Moreover, under setting [2], the half-maximal activity concentration (AC50) is 6.51 µM [rising, partial curve].
With `COc1ccc(OC)c(NC(=O)CSc2nc(N3CCOCC3)nc(N3CCOCC3)n2)c1`, the cell number change stood at 37.7%. Further, the AC50 under setting [1] was 9.2 µM [rising, partial curve, poor fit]. Also, the AC50 under setting [2] was 20.6 µM [rising, partial curve].
For `CCCCOc1ccc(C(=O)C(CN2CCOCC2)c2ccccc2)cc1` (centres undefined), the cell number change is -34.6%. Besides, the concentration at half-maximal activity (AC50) under setting [1] is 29.1 µM [falling, single point]. Also, the half-maximal activity concentration (AC50) under setting [2] was 29.1 µM [falling, single point].
For `COc1cccc2c1OCC/C2=N\NC(=O)COc1ccccc1C`, the cell number change is -36.3%. Further, the AC50 under setting [1] was 29.1 µM [falling, single point]. In addition, under setting [2], the AC50 is 7.31 µM [falling, single point].
As to `O=C(Nc1ccc(Cl)cc1)Nc1ccc2c(c1)N1CCN=C1S2`, the cell number change was -14.7%. Moreover, under setting [2], the AC50 is 0.13 µM [rising, partial curve, poor fit].
As for `CCCCc1cc(=O)oc2c(C)c(OCC(=O)NCCN3CCOCC3)ccc12`, the half-maximal activity concentration (AC50) under setting [2] is 4.11 µM [falling, full curve].
Turning to `CCCCn1c(N)c(N(CCOC)C(=O)C(C)Oc2ccc(Cl)cc2)c(=O)[nH]c1=O` (centres undefined), the cell number change is -97.2%. Further, the concentration at half-maximal activity (AC50) under setting [1] was 29.1 µM [falling, single point]. The half-maximal activity concentration (AC50) under setting [2] is 29.1 µM [falling, single point].
Consider `O=[N+]([O-])c1ccccc1/C=N/n1c(C(F)(F)F)n[nH]c1=S`, for which the cell number change is -45.9%. In addition, under setting [1], the half-maximal activity concentration (AC50) was 0.731 µM [falling, full curve]. In addition, the AC50 under setting [2] was 0.731 µM [falling, single point].
With `CCCCn1c(N)c(N(CCOC)C(=O)COc2ccc(OCC)cc2)c(=O)[nH]c1=O`, the cell number change came to 5.32%.
For the molecule `NC(=O)CN(c1ccc(Oc2ccccc2)cc1)S(=O)(=O)c1ccccc1`, the cell number change was -2.05%.
With `C=CCOc1ccc(-c2nc3c(c(=O)[nH]c(=O)n3CCC)n2CCCC)cc1`, the AC50 under setting [2] is 4.11 µM [falling, full curve].
`O=C(OCc1cn(-c2ccc(Cl)cc2)nn1)c1ccccc1`: the cell number change is 23.4%.
Regarding `N#CC1(NC(=O)CSc2nnc(Cc3ccccc3)o2)CCCCC1`, the cell number change was -13.1%. Also, under setting [2], the AC50 is 20.6 µM [falling, partial curve, poor fit].
On to `CCOc1ccccc1NC(=O)C(=O)N/N=C/c1ccc([N+](=O)[O-])cc1`, for which the cell number change amounted to 34.9%. Moreover, under setting [1], the AC50 is 10.3 µM [rising, partial curve, poor fit]. Further, the AC50 under setting [2] is 20.6 µM [rising, partial curve].
As to `CCOc1ccc(C(=O)NCC(=O)N2CCCCCCC2)cc1`, the cell number change is -4.27%. Also, the AC50 under setting [2] was 0.00411 µM [rising, full curve, poor fit].
As for `O=C1c2sc3nc4c(c(=O)n3c2C(=O)N1c1ccccc1)CCC4`, the cell number change was -7.45%. Further, the AC50 under setting [2] is 29.1 µM [rising, single point].
`CCOC(=O)C1(Cc2cccc(Cl)c2)CCCN(C(=O)c2c(CC)noc2C)C1` (centres undefined): the cell number change was -8.02%.
Take `CC(C)CCn1c(=O)[nH]c2ccccc21`: the cell number change is 54.9%. For the same molecule, under setting [1], the half-maximal activity concentration (AC50) is 13 µM [rising, partial curve]. Further, the AC50 under setting [2] is 14.6 µM [rising, partial curve].
As for `CC(/C=N/NC(=O)c1n[nH]c2c1CCC2)=C\c1ccccc1`, the cell number change was -53.7%. Also, under setting [1], the concentration at half-maximal activity (AC50) is 29.1 µM [falling, single point]. Moreover, the AC50 under setting [2] is 23.1 µM [falling, single point].
In the case of `O=C(CN1CCN(S(=O)(=O)c2ccc(Br)cc2)CC1)N/N=C/c1ccc(Cl)c([N+](=O)[O-])c1`, the cell number change is 7.3%. In addition, the concentration at half-maximal activity (AC50) under setting [2] is 18.4 µM [falling, partial curve, poor fit].
In the case of `Cc1cc(C)n(/N=C/c2ccccc2O)c(=O)c1`, the cell number change was -7.01%. Under setting [1], the AC50 was 0.58 µM [falling, single point].
With `COc1ccc(Cl)cc1S(=O)(=O)n1cnc2ccccc21`, under setting [2], the concentration at half-maximal activity (AC50) was 1.03 µM [rising, full curve, poor fit].
`COc1ccc(C(=O)C2CCCN(C(=O)c3ccc(F)cc3)C2)cc1OC` (centres undefined): the cell number change was found to be 14.7%. For the same molecule, the AC50 under setting [2] was 0.517 µM [rising, partial curve, poor fit].
Regarding `Cc1cc(CNC(=O)COc2ccc(C#N)cc2)c2ccccc2n1`, the cell number change was -24.3%. Besides, the AC50 under setting [2] was 29.1 µM [falling, single point].
As to `Cc1ccc(NS(=O)(=O)c2ccc(Br)s2)cc1S(=O)(=O)N1CCOCC1`, the cell number change is -40.2%. In addition, under setting [2], the concentration at half-maximal activity (AC50) is 0.00461 µM [falling, full curve, poor fit].
For `COc1ccc(Cl)cc1C(=O)Nc1cccnc1Cl`, the cell number change came to 9.06%. In addition, the AC50 under setting [2] was 0.58 µM [rising, single point].
In the case of `O=C(NCc1ccc(Cl)cc1)C1CCN(C(=O)c2ccco2)CC1`, the cell number change is -15.4%.
Take `CC1=CC(C)(C)N(C)C(=O)N1c1ccc(Cl)cc1`: the cell number change amounted to 2.69%. In addition, the concentration at half-maximal activity (AC50) under setting [2] is 18.4 µM [rising, single point].
For the molecule `c1ccc(-c2ccccc2OCCOCCN2CCc3ccccc3C2)cc1`, the cell number change is -27.9%.
Take `CC1=C(C)CC(C(=O)NCc2cccc(Cl)c2)C(C(=O)O)C1` (centres undefined): the cell number change was 7.41%.
As to `COCC(C)n1c(SCC(=O)Nc2nccs2)nc2ccccc2c1=O` (centres undefined), the cell number change is -7.52%. Also, the concentration at half-maximal activity (AC50) under setting [2] is 0.82 µM [falling, single point].
`CCCCn1c(N)c(N(CC)C(=O)C2=NN(c3ccccc3)C(=O)CC2)c(=O)[nH]c1=O`: the cell number change is -2.38%. Also, the half-maximal activity concentration (AC50) under setting [1] is 0.366 µM [falling, full curve, poor fit]. In addition, the AC50 under setting [2] was 2.59 µM [falling, partial curve].
